These are yes or no findings as the source states them, for the method shown. In cells and extracts the contact can be indirect. Some entries that bind do so weakly or less than the wild type.
Target: ryanodine receptor 2 (RyR2) in porcine cardiac SR membranes (pig (endogenous in porcine left ventricle SR))
Test: FRET or BRET; fluorescence-lifetime FRET from D-FKBP preloaded on H2O2-treated (100 μM) cardiac SR (2 mg/ml) to 1.5 μM A-DPc10; 30 nM free Ca2+, 20 mM PIPES, 150 mM KCl, 0.1 mg/ml BSA; 1536-well plates; only the binder purified

GFCPDHKAAMVLFLDRVYGIEVQDFLLHLLEVGFLP (HiLyte Fluor 647 on the N-terminus) [HL647-DPc10 (DPc10 peptide N-terminally labelled with HiLyte Fluor 647)]
binding: binds

Reference: PMC12765055
